Test results reported in PubChem BioAssay AID588590 (National Center for Advancing Translational Sciences (NCATS), 2011).
In all, about 390,000 compounds went through this assay and about 4,000 (1%) were called active. The inconclusive results got no clear call from the source; some entries with a clear call stand among them for comparison. Calls follow the shape of the dose curve; as a rule, active = well fitted inhibition curve with a large enough effect; inconclusive = small, poorly fitted or top-dose-only effect, or another doubt; inactive = no such curve, though single readings can be large or run the other way. Potencies beside an inconclusive call are fits to weak or partial responses and may not hold up.

Sequences of proteins named here, by UniProt entry; tags and fusion partners are left off. A change or cut given only in a name is not applied to a line headed by its entry.
UniProt Q9UNA4: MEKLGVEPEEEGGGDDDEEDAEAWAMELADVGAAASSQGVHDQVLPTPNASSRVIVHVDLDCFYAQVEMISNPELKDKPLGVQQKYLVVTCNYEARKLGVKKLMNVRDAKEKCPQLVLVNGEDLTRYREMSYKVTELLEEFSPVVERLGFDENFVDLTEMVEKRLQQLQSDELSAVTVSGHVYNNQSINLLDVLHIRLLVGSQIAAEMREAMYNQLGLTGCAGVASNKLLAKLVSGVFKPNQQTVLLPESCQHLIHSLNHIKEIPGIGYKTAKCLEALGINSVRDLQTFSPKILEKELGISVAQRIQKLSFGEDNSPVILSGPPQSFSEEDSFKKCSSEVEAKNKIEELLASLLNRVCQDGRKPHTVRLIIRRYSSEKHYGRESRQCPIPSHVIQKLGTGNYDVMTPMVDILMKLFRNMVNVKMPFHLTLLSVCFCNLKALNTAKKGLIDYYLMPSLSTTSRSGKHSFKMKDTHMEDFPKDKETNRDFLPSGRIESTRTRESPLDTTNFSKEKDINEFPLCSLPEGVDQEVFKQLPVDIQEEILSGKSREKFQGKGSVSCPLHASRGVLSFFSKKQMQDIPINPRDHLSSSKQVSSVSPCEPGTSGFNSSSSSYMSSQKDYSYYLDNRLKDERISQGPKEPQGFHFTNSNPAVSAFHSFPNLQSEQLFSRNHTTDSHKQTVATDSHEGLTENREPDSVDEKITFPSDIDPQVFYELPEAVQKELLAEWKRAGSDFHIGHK

The molecules below were run against DNA polymerase iota (Homo sapiens) (UniProt Q9UNA4) (assay: qHTS for Inhibitors of Polymerase Iota). Details: Pol iota fluorescent replication assay, 10 min; series mostly up to 115 µM; activity, negative = inhibition: at the top concentration.
Summary of the method: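 Fluorescent replication assay read twice, at 0 min and 10 min after adding 50 nM (final) substrate. Enzyme (10 nM) and compounds were first incubated 15 min at room temperature; enzyme-free buffer wells were negative controls.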
Potency is read from the fitted curve at half-maximal effect.

Potency, inconclusive:
CCOC1=C/C(=C/c2c(N)n3nc(CC(=O)N4CCCCC4)sc3nc2=O)C=CC1=O 56.2 µM [inhibitor, partial curve, poor fit]
c1ccc2c(C[C@@H]3CNCCN3CC3CCCCC3)cccc2c1 14.1 µM [inhibitor, partial curve, poor fit]
Nc1cc(OC(=O)c2cccs2)nn1S(=O)(=O)c1ccc(F)cc1 39.8 µM [inhibitor, single point]
O=C1C2CC=C(Cl)CC2C(=O)N1CCc1ccccc1 (stereo not given) 35.5 µM [inhibitor, partial curve, poor fit]
CCCCOc1ccc(C(=O)NCCCC(=O)N2CCCCC2)cc1 100 µM [inhibitor, single point]
O=C(Cc1ccccc1)Nc1ccc2oc(-c3cccnc3)nc2c1 100 µM [inhibitor, partial curve, poor fit]
CCOc1ccc2ccccc2c1CNCCN1CCOCC1 12.6 µM [inhibitor, partial curve]
CCCc1cc(-c2n[nH]c(=S)n2Cc2ccccc2)cs1 79.4 µM [inhibitor, partial curve, poor fit]
S=C(c1ccc(-c2ccc(Cl)c(Cl)c2)o1)N1CCOCC1 25.1 µM [inhibitor, partial curve, poor fit]
CCN1/C(=C\C=C2\C(=O)N(c3ccccc3)C(=S)N2C)Sc2ccccc21 8.91 µM [inhibitor, full curve, poor fit]
O=C(NCc1ccco1)Nc1ccc2nsnc2c1 28.2 µM [inhibitor, single point]
COc1ccc(C(=O)Oc2ccc(-c3nnco3)cc2)cc1S(=O)(=O)N1CCOCC1 70.8 µM [inhibitor, partial curve, poor fit]
CCSc1nnc(NC(=O)c2ccc3c(c2)OCO3)s1 25.1 µM [inhibitor, partial curve, poor fit]
CCOC(=O)c1cc2c(=O)n3cccc(C)c3nc2n(Cc2ccco2)c1=NC(=O)c1ccccc1 28.2 µM [inhibitor, full curve]
COc1ccccc1/C=C1\SC(=O)N(CCC(=O)NNC(=O)c2ccccc2Cl)C1=O 39.8 µM [inhibitor, single point]
CCOC(=O)N1CCC(NCCNC(=O)c2ccc(Cl)cc2)CC1 11.2 µM [inhibitor, partial curve, poor fit]
O=C1C=CC(=O)N1CCCCCCCCCCN1C(=O)C=CC1=O 1.41 µM [inhibitor, full curve]
O=C1OC(c2ccc(Cl)cc2)=N/C1=C\C=C\c1ccco1 50.1 µM [inhibitor, partial curve, poor fit]
CCOc1ccc(C(c2c(C)[nH][nH]c2=O)c2c(C)[nH][nH]c2=O)cc1OCC 39.8 µM [inhibitor, partial curve, poor fit]
C[C@@]12C(=O)Nc3cc(Cl)ccc3C(=O)N1[C@H]1c3cc(Cl)ccc3OC[C@@H]1[C@@H]2c1ccccc1 11.2 µM [inhibitor, partial curve, poor fit]
COc1ccc(Br)c2c1-c1nc(NC(=O)c3cccc(C)c3)sc1C2 25.1 µM [inhibitor, partial curve]
C/C(CC(=O)NC(C)(C)C)=N\NC(N)=S 50.1 µM [inhibitor, partial curve]
Cn1c(Cc2ccc3c(c2)OCO3)nnc1SCC(=O)N1CCc2ccccc2C1 7.08 µM [inhibitor, full curve]
Cc1[nH]n(-c2ccc([N+](=O)[O-])cc2)c(=O)c1C=NCCc1ccc(S(N)(=O)=O)cc1 28.2 µM [inhibitor, single point]
Cc1ccc(OCCCC(=O)N2CCOCC2)cc1 10 µM [inhibitor, partial curve, poor fit]
CCOC(=O)CC(NC(=O)c1cc2cc(Cl)ccc2oc1=O)c1ccc(C)cc1 (stereo not given) 89.1 µM [inhibitor, partial curve]
Cc1cccc(C)c1NC(=O)c1nc(S(=O)(=O)Cc2ccccc2)ncc1Cl 22.4 µM [inhibitor, single point]
COc1ccc2cc(C(=O)c3ccccc3)c(=O)oc2c1 79.4 µM [inhibitor, full curve]
CC(=O)c1cccc(NC(=O)COC(=O)c2ccccc2OCc2cccc(Br)c2)c1 79.4 µM [inhibitor, single point]
NC(=O)C1CCN(C2=C(NS(=O)(=O)c3ccc(Cl)cc3)C(=O)c3ccccc3C2=O)CC1 14.1 µM [inhibitor, full curve]
S=c1[nH]nc(COc2ccc(Cl)cc2)o1 28.2 µM [inhibitor, partial curve, poor fit]
Cc1nn(C)cc1/C=C/C(=O)c1ccccc1 39.8 µM [inhibitor, full curve, poor fit]
O=[N+]([O-])c1cc([N+](=O)[O-])c2oc(-c3ccccc3)c(Br)c2c1O 20 µM [inhibitor, full curve, poor fit]
O=C(Nc1ccccc1C(F)(F)F)c1c(F)cccc1Cl 100 µM [inhibitor, partial curve, poor fit]
O=C(/C=C/c1ccco1)Nc1ccc(CN2CCOCC2)cc1 89.1 µM [inhibitor, single point]
Cc1nn(-c2ccccc2)c2c1C1(C(=O)N(C)c3ccccc31)C(C#N)=C(N)O2 (stereo not given) 22.4 µM [inhibitor, single point]
Cc1noc(C)c1CSc1nc2ccccc2n1CCc1ccccc1 14.1 µM [inhibitor, single point]
Cc1cn(CC(=O)NCc2ccc(N(C)C)cc2)c(=O)[nH]c1=O 79.4 µM [inhibitor, single point]
COc1cc(NC(=O)c2cc(-c3ccccc3O)no2)cc(OC)c1OC 89.1 µM [inhibitor, single point]
COc1cc(N)n(S(=O)(=O)c2ccc(C)cc2)n1 100 µM [inhibitor, single point]
CC(=O)OCc1cnc(C)c2oc(=O)c(C(=O)Nc3ccc(F)cc3C)cc12 39.8 µM [inhibitor, partial curve, poor fit]
COc1ccc(/C=C2\SC(=S)N(CCC(=O)Nc3ccccc3C(=O)O)C2=O)cc1 31.6 µM [inhibitor, full curve]
Nc1cccc2c1C(=O)c1ccc(Cl)cc1C2=O 25.1 µM [inhibitor, full curve, poor fit]
O=C(NC(NNc1ccc([N+](=O)[O-])cc1)(C(F)(F)F)C(F)(F)F)c1ccccc1Cl 39.8 µM [inhibitor, single point]
O=C(CCN1C(=O)/C(=C/c2ccccc2Cl)SC1=S)NC1CCS(=O)(=O)C1 (stereo not given) 22.4 µM [inhibitor, single point]
COC(=O)COc1cccc2c(=O)n(CC(=O)Nc3ccc4c(c3)OCCO4)ccc12 35.5 µM [inhibitor, partial curve, poor fit]
COc1ccccc1N1CSC2=C(C#N)C(c3ccc(SC)cc3)CC(=O)N2C1 (stereo not given) 0.794 µM [inhibitor, full curve, poor fit]

Copied from above for reference:
Potency, inconclusive:
CCOc1ccc2ccccc2c1CNCCN1CCOCC1 12.6 µM [inhibitor, partial curve]
CCCc1cc(-c2n[nH]c(=S)n2Cc2ccccc2)cs1 79.4 µM [inhibitor, partial curve, poor fit]
S=C(c1ccc(-c2ccc(Cl)c(Cl)c2)o1)N1CCOCC1 25.1 µM [inhibitor, partial curve, poor fit]
CCN1/C(=C\C=C2\C(=O)N(c3ccccc3)C(=S)N2C)Sc2ccccc21 8.91 µM [inhibitor, full curve, poor fit]
O=C(NCc1ccco1)Nc1ccc2nsnc2c1 28.2 µM [inhibitor, single point]
COc1ccc(C(=O)Oc2ccc(-c3nnco3)cc2)cc1S(=O)(=O)N1CCOCC1 70.8 µM [inhibitor, partial curve, poor fit]
CCSc1nnc(NC(=O)c2ccc3c(c2)OCO3)s1 25.1 µM [inhibitor, partial curve, poor fit]
CCOC(=O)c1cc2c(=O)n3cccc(C)c3nc2n(Cc2ccco2)c1=NC(=O)c1ccccc1 28.2 µM [inhibitor, full curve]
COc1ccccc1/C=C1\SC(=O)N(CCC(=O)NNC(=O)c2ccccc2Cl)C1=O 39.8 µM [inhibitor, single point]
CCOC(=O)N1CCC(NCCNC(=O)c2ccc(Cl)cc2)CC1 11.2 µM [inhibitor, partial curve, poor fit]
O=C1C=CC(=O)N1CCCCCCCCCCN1C(=O)C=CC1=O 1.41 µM [inhibitor, full curve]
O=C1OC(c2ccc(Cl)cc2)=N/C1=C\C=C\c1ccco1 50.1 µM [inhibitor, partial curve, poor fit]
CCOc1ccc(C(c2c(C)[nH][nH]c2=O)c2c(C)[nH][nH]c2=O)cc1OCC 39.8 µM [inhibitor, partial curve, poor fit]
C[C@@]12C(=O)Nc3cc(Cl)ccc3C(=O)N1[C@H]1c3cc(Cl)ccc3OC[C@@H]1[C@@H]2c1ccccc1 11.2 µM [inhibitor, partial curve, poor fit]
COc1ccc(Br)c2c1-c1nc(NC(=O)c3cccc(C)c3)sc1C2 25.1 µM [inhibitor, partial curve]

Next part.

Potency, active:
COC(=O)c1ccccc1NC1=C/C(=N\S(=O)(=O)c2cccs2)c2ccccc2C1=O 1.41 µM

activity, negative = inhibition, inactive:
C/C(=N\Nc1ccc(Cl)c(C(=O)O)c1)c1ccccn1 -7.89%
N#Cc1ccc(C(=O)Nc2ccc(Cl)c(-c3nc4cc(Cl)ccc4o3)c2)c(F)c1 -7.52%
CCN(C(=O)c1nn(-c2ccc(OC)c(Cl)c2)c(=O)c2c1c1ccccc1n2C)c1cc(OC)ccc1OC 18.9%
C=CCN(C(=O)c1csnn1)C(C(=O)NC1CCCC1)c1cccs1 (stereo not given) 121%
C#CCOc1c(Cl)cc(/C=N/O)cc1OC 6.7%
COc1ccc(C2C3=C(CCCC3=O)NC3=C2C(=O)c2ccccc23)cc1 (stereo not given) 10.3%
CC(=O)c1ccc(NC(=O)CSc2cn(CC(=O)N3CCCCC3)c3ccccc23)cc1 -6.36%
O=C(O)c1ccc(CN2C(=O)c3ccc(C(=O)O)cc3C2=O)cc1 -5.33%
CC(=O)Nc1ccc(NC(=O)c2cc([N+](=O)[O-])cc([N+](=O)[O-])c2)cc1 21.5%
Brc1ccc(-c2ccc(CNCCSc3nnnn3-c3ccccc3)o2)cc1 6.09%
CC(=O)NCCn1c(SCC(=O)NCCC(C)C)nc2ccccc2c1=O -9.1%
CN(C)S(=O)(=O)c1ccc2c(c1)c(=O)c(C(=O)N1CCN(c3cccc(Cl)c3)CC1)cn2C 13.3%
CCOc1cc(C(=O)Nc2ccc(S(=O)(=O)NC3=NCCCCC3)cc2)cc(Br)c1OC 83.7%
COC(=O)c1c(SCC(=O)Nc2cccc(C(F)(F)F)c2)[nH]c2ccccc2c1=O -16.4%
CC(=O)Nc1nonc1-c1nnc(SCC(=O)Nc2ccccc2Cl)n1C 27.1%
COc1ccc(NC(=O)C2CCN(C(=O)c3sc4nc[nH]c(=O)c4c3C)CC2)c(OC)c1 -1.39%
O=C(N/N=C/c1cccc([N+](=O)[O-])c1)c1nc2ccccc2c(=O)[nH]1 -16.3%
